# In all, about 53,000 sequences went through this assay and about 3,700 (7%) were called active.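 How the source made its calls: active means gene knockdowns whose robust z-score for IL-1 alpha signal is at least 2 or at most -2, so actives lie on both sides; inactive means the rest.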 The list shows a part of the results.
# Assay: Components of the Cytosolic LPS Sensing Pathway: Gene Identification via Genome-wide siRNA Screen;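 further: robust z of the log signal after scaling to non-targeting control siRNA wells of the plate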
# Conditions: RAW264.7 macrophages, IL-1a HTRF, actives lie on both sides, screened at 100 nM (by protocol), cells primed 5 h with Pam3CSK4 first
# In short: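 Three distinct siRNAs per gene were tested singly at 100 nM in RAW264.7 macrophages. Following Pam3CSK4 priming and 24 hour LipidA transfection, IL-1a secretion was read by HTRF.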
row,Sequence,z-score
1,CCUCAUGCAGCUCAAUCUATT against Prelp,active: -2.41
2,GGGCAAGUUUGUGGAGCUUTT against Akr7a5,inactive: 0.0772
3,CGUAUUCCAAAUACACUUGTT against Meox2,inactive: 0.959
4,GUGGCACCUUUGGUGAAGCTT against Kiss1,inactive: -0.59
5,GGGUUAUGUCUGUGGAGCUTT against Bcl2l2,inactive: 1.37
6,GCGAGGACAUCGUAGAGAATT against Msi1,inactive: 0.997
7,GGAGCAUCAUUUUAACACUTT against Tubd1,inactive: 0.925
8,GGGAAGCAGAAAUGAGAAATT against Pdcd5,inactive: 0.135
9,GGACACCAAAAGCUAAGUGTT against Cnppd1,inactive: -1.98
10,GGUCUAGAUUAUGAGCAAUTT against Pcdhga7,inactive: 1.35
11,CCUAACUUCACUUGAUAUGTT against Snx21,inactive: 0.135
12,GGUGGCCAUCAAGAAGAUATT against Mapk7,inactive: -0.749
13,GGUCUCUAGUGGAAAAGCATT against A430093F15Rik,active: -3.05
14,CCAUCGUAUAAAUUACCAUTT against Plaa,inactive: -0.762
15,GCCAGUUUAGGUAAUAAACTT against Socs1,inactive: 0.395
16,GCCAUUCUGCCCUACACAATT against Rasa1,inactive: 0.135
17,CCCUAGCAUCAAGAGUGCUTT against Fryl,inactive: -0.00437
18,GGUAUGACCUAGUGGAGGGTT against Trem1,inactive: -0.0909
19,GGACAGAAACUCCUUAUCATT against Zfp628,inactive: -0.99
20,CCAUAGUGUAUCUGACUGGTT against Iqsec1,inactive: -0.135
21,GCCGGGAGAGUAAUGUCUGTT against Lmtk3,inactive: 0.547
22,GCGACCAGCCUGUUGUUGUTT against Vrtn,inactive: 0.538

row,Sequence,z-score
1,GGUCCCUAGAAAUUCGGGATT against Nphp3,inactive: 1.28
2,CCAUCACUCUUAAAUAUUCTT against Klri2,inactive: -1.36
3,GGAGGAGAAUUACUCCUUUTT against Med9,inactive: 0.956
4,GGACAGGAGCUGUUUGACCTT against Epb41l5,inactive: -0.885
5,GGAGAAGUUAAAGAAGAACTT against Ddx55,inactive: -0.433
6,GAGAUUUUGUUUGGGUUGUTT against Olfr1126,inactive: 1.16
7,GGAAGCAAGUAUCCCGAAUTT against Snhg11,active: -2.58
8,GGCCCUAUUUUGGAUAACUTT against Tgfb1i1,inactive: 0.344
9,CGAUGACGAUGCCUAACCATT against Dgkeos,active: -2.34
10,GGAUCUGUGUGCUAACAGCTT against 4930550C14Rik,inactive: 0.686
11,GGAUGAUCUUGGUGUACACTT against Tmem91,active: 3.04
12,GGAGUUUGAAAGUUCCUUCTT against Dap3,inactive: 1.82
13,CCCAAAGGUGAUGUUACCUTT against H2-M3,inactive: -0.491
14,GGUUCUGUAAAUUCAACUATT against Zfp593,inactive: 0.706
15,GGGCAUAGAUUAGUCUUUATT against Ing2,inactive: 1.01
16,GGACAAUACCUACCUCGCATT against Polr3d,inactive: 0.971
17,GGAAUGGAUACUUAUCUCUTT against Tef,inactive: 1.17
18,GGAUUCCUACAGGUGUGAATT against 4930503E14Rik,inactive: 1.02
19,CCCAGACAUUACAUGGCCUTT against Cldn6,inactive: -0.935
20,GCCUAAGGAUCCUGGGUUATT against Orai3,inactive: 1.43
21,CGAGCCUGACUUCAAUCCUTT against Clcf1,inactive: -0.403
22,GCUCUCGACUCUUUACACUTT against Nfatc2ip,inactive: 0.423

row,Sequence,z-score
1,GCAAUUAUAACUUAGAAGGTT against Eml3,inactive: 0.149
2,GGUUGUCUCUUGAGAAUGATT against Cst10,inactive: -0.345
3,GGAAUGGUAGCCACUGUUATT against Klrg1,inactive: -0.339
4,GGCCUUGAUGCCAUUGUAATT against Rnf115,inactive: -0.763
5,CCUCGCUUAUGUCAAUAAUTT against Fabp12,inactive: -1.16
6,GGAAUACCAGGAAUACGAGTT against Sncb,inactive: -0.517
7,GCUGAAAAGCAGAAGCCACTT against 2610028H24Rik,inactive: -0.795
8,GCAAGGCCUAAUGGUCAGATT against Cnga3,inactive: -0.813
9,GCAGCUUUAGGUCCAUUCGTT against Pkd2l2,inactive: -0.696
10,GGAGAAAUGGGUAAAAACUTT against Paral1,inactive: 0.296
11,CCAGUUUGAUGGUAGACAATT against Tifa,inactive: -1.38
12,GGAUCUGCUGAUGCUUCCATT against Cstf1,inactive: -0.657
13,GCUAUGAGAUGUAUCCCGGTT against Pramel27,inactive: -0.283
14,GGAAAAGGUUUCUUCUAAATT against Nlrp2,inactive: 0.635
15,GUAGCAGAGGCUUCACUAUTT against Ndufaf3,inactive: -1.58
16,CGCAGCAGGAAUCAGGAAUTT against Tsr1,inactive: 0.222
17,GGUAGACUUCAUCCUAGGCTT against Olfr62,inactive: 0.548
18,GCUUGGAAGGGACUUCAAUTT against Trp73,active: 2.97
19,GGAUAAUGGUAUCUACUUCTT against Cd79b,inactive: 1.28
20,GGAAUGGUUUGGUGAGUUUTT against Pramel1,inactive: 0.859
21,GGUCUUUCCAAUGUUCACATT against Nos1,inactive: -0.6
22,GGUACAAAGCCAUUGUACGTT against Grpr,inactive: -0.381

row,Sequence,z-score
1,CCAUGAGUUAGUGUUCGGUTT against Blmh,inactive: -1.42
2,GGUGAUUCGUCAGAAGCUGTT against Gpr84,inactive: -0.61
3,GCACAUAGCCGACACCUACTT against Hsdl1,inactive: 0.465
4,GGUUGAUGAUAGCUCUGAATT against Opn1mw,inactive: -0.22
5,GCGGAUGCAAAUCGAUGAATT against Cep135,inactive: -0.507
6,GCAUGAUCUCAGGUGUUUGTT against Timm13,inactive: -1.54
7,CCCUAAGACGAAGGAAAUGTT against Pdrg1,inactive: -0.844
8,GCUUUACGGUCAAUUAGCCTT against Nr2e1,inactive: 0.0117
9,CCAAAAUGGAAUGCUCUUCTT against Zfp944,inactive: -0.658
10,UAGUCAUCUUCAUUCUCCUTT against Olfr1251,inactive: -0.821
11,GGUGGAUGUGUCAGAAUACTT against Alox15,inactive: -0.134
12,GGUCUUACGAGUAUUUUUUTT against Rnft1,inactive: -0.331
13,GCAUAACAUGCUCUUCCAUTT against Mtmr1,inactive: 1.56
14,GGAACAAGCUGUCUUAGAGTT against Olfr157,inactive: 1.34
15,GGGAUUCUCCAAAAGGAAGTT against Arhgap6,inactive: 0.856
16,CGGAUACAGGUUCGGGUAATT against Nemp1,inactive: 1.06
17,CCACUCAACUAGAUUAUUGTT against Wdr20,inactive: -0.276
18,GGAAACCCAAUAUCAAACUTT against Rnf138,inactive: 0.252
19,GGACCUUUCAUCAACCCAUTT against Olfr676,active: 2.13
20,GGACUCACCCUGAGAGAUUTT against Abca4,inactive: 0.132
21,GCUUGGUGUAAUCAUGCGCTT against Prl7d1,inactive: 0.314
22,GGGUCAUGUGAGCCAAUUUTT against Tcf20,inactive: -0.569

row,Sequence,z-score
1,GGACAUACCGAGAAGAUUGTT against Dmac1,inactive: -1.25
2,GGUCCUGUCUUUACAAUGUTT against Eml6,inactive: 1.76
3,GCGUGAAGGAGCACAGAUUTT against 4933409K07Rik,inactive: 0.678
4,GCCGAUGAAGUAAAUUUACTT against Klhl32,inactive: 0.221
5,GGUGUGAUGCAUCAAGUCATT against Trip12,inactive: 0.696
6,GCUCUUUUUAACACUCUUATT against Bace1,inactive: 0.261
7,GGCAGACAUGAAAUGCAUUTT against Osgin2,inactive: 0.79
8,GCCUGACAGAAUUAUUUGCTT against Trnt1,inactive: -1.21
9,GGAAAAAGACCAUCUGUGGTT against Plk3,inactive: -1.63
10,GCCACUGUUGUGUAAACUATT against Rap2a,active: 2.01
11,GGUAAUUGGUAGAACAGUUTT against Olfr837,inactive: -0.53
12,CCAAGAAGGUUGGGAAAGCTT against Rpl34,inactive: -0.781
13,CCGUUACAAACCAAGACCUTT against Flt3,inactive: -0.716
14,GGAUACUGUGUGGUCAUGUTT against Zfp60,inactive: -1.26
15,GGAAGUGAAUAUUGAGUUUTT against Bccip,active: 2.04
16,GAUCUUCCUGACAGUGGUGTT against Psors1c2,inactive: -0.15
17,GCUCACCCUAUUUGCUGCCTT against Kcnj15,inactive: 0.533
18,GGAGCUCUGUGAAUCUCUUTT against Ska1,inactive: -0.796
19,GGGUAUGACAACAAACUUCTT against Gabrg2,inactive: -0.422

# Some of the entries so far, tab-delimited.
row	Sequence	z-score
8	GCUUUACGGUCAAUUAGCCTT against Nr2e1	inactive: 0.0117
9	CCAAAAUGGAAUGCUCUUCTT against Zfp944	inactive: -0.658
10	UAGUCAUCUUCAUUCUCCUTT against Olfr1251	inactive: -0.821
11	GGUGGAUGUGUCAGAAUACTT against Alox15	inactive: -0.134
12	GGUCUUACGAGUAUUUUUUTT against Rnft1	inactive: -0.331
13	GCAUAACAUGCUCUUCCAUTT against Mtmr1	inactive: 1.56
14	GGAACAAGCUGUCUUAGAGTT against Olfr157	inactive: 1.34
15	GGGAUUCUCCAAAAGGAAGTT against Arhgap6	inactive: 0.856
16	CGGAUACAGGUUCGGGUAATT against Nemp1	inactive: 1.06
17	CCACUCAACUAGAUUAUUGTT against Wdr20	inactive: -0.276
18	GGAAACCCAAUAUCAAACUTT against Rnf138	inactive: 0.252
19	GGACCUUUCAUCAACCCAUTT against Olfr676	active: 2.13
20	GGACUCACCCUGAGAGAUUTT against Abca4	inactive: 0.132
21	GCUUGGUGUAAUCAUGCGCTT against Prl7d1	inactive: 0.314
22	GGGUCAUGUGAGCCAAUUUTT against Tcf20	inactive: -0.569
1	GGACAUACCGAGAAGAUUGTT against Dmac1	inactive: -1.25
2	GGUCCUGUCUUUACAAUGUTT against Eml6	inactive: 1.76
3	GCGUGAAGGAGCACAGAUUTT against 4933409K07Rik	inactive: 0.678
4	GCCGAUGAAGUAAAUUUACTT against Klhl32	inactive: 0.221
5	GGUGUGAUGCAUCAAGUCATT against Trip12	inactive: 0.696
6	GCUCUUUUUAACACUCUUATT against Bace1	inactive: 0.261
7	GGCAGACAUGAAAUGCAUUTT against Osgin2	inactive: 0.79
8	GCCUGACAGAAUUAUUUGCTT against Trnt1	inactive: -1.21
9	GGAAAAAGACCAUCUGUGGTT against Plk3	inactive: -1.63
10	GCCACUGUUGUGUAAACUATT against Rap2a	active: 2.01
11	GGUAAUUGGUAGAACAGUUTT against Olfr837	inactive: -0.53
12	CCAAGAAGGUUGGGAAAGCTT against Rpl34	inactive: -0.781
13	CCGUUACAAACCAAGACCUTT against Flt3	inactive: -0.716

# From PubChem BioAssay AID1508600 (Functional Genomics Laboratory (NCATS/FGL), 2020)
